Values quoted from earlier work in patent US20220288148A1, “METHODS FOR RELIEVING BACK PAIN WITH TERMINALIA CHEBULA COMPOSITIONS” (Natreon, Inc., priority 2021, published 2022).
At least one compound was matched to its structure with a doubt left.

System: mouse macrophage cell line
Conditions: cited from earlier work

Compound: O=C(O)C[C@@H]1C(=O)O[C@H]2[C@@H]3OC(=O)c4cc(O)c(O)c(O)c4-c4c(cc(O)c(O)c4O)C(=O)OC[C@H]2O[C@@H](OC(=O)c2cc(O)c(O)c(O)c2)[C@@H]3OC(=O)c2cc(O)c(O)c3c2[C@H]1[C@H](O)C(=O)O3 [Chebulagic acid]
- anti-inflammatory effects: has shown anti-inflammatory effects
